Reference: patent publication US20240376363A1, “FLUORINE SUBSTITUTED CYCLOBUTENE COMPOUNDS, AND COMPOSITIONS, METHODS AND USES INCLUDING SAME” (HONEYWELL INTERNATIONAL INC., priority 2021, published 2024)
Some results were stated once for a whole list of compounds, not compound by compound.

Assay: miscibility with mineral oil
Type: physicochemical
Source text: In addition, the compounds of the present invention have good miscibility with lubricants, including lubricants used in vapour compression refrigeration systems. For example, the Compounds 1 and 3 are fully miscible with e mineral oil at concentrations up to about 66.7 weight percent as indicated in the following table.

## FC1=C(Cl)CC1(F)F [Compound 1, 1-chloro-2,3,3-trifluorocyclo-1-ene]
  fully miscible with mineral oil at concentrations up to: up to 66.7 weight percent

## FC1(F)C(Cl)=C(Cl)C1(F)F [Compound 3, 1,2-dichloro-3,3,4,4-tetrafluorocyclobut-1-ene]
  fully miscible with mineral oil at concentrations up to: up to 66.7 weight percent
